{"sequences": {"note": "By UniProt entry, the sequences of proteins in these tests, tags left out.", "UniProt Q9JI15": "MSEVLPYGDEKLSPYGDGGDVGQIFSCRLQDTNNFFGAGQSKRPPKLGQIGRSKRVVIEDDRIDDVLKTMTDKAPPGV", "UniProt P11275": "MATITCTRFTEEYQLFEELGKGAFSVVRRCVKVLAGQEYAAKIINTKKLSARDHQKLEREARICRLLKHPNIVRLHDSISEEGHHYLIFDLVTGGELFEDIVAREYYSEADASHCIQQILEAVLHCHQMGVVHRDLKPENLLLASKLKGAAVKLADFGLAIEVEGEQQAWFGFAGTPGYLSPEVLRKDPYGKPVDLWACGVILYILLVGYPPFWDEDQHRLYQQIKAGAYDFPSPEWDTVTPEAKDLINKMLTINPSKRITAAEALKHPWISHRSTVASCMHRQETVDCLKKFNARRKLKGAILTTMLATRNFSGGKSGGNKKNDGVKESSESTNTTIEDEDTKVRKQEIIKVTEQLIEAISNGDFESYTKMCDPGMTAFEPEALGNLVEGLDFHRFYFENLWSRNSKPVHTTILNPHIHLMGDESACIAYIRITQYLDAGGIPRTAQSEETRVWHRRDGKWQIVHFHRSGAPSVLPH"}, "source": "paper PMC5017783", "key": {"GST-CaMKIINα [1]": {"biological_target": "GST-CaMKIINα (UniProt Q9JI15)", "assay": "pull-down; GST pull-down on glutathione-sepharose; CaMKII incubated with the GST fusion in 50 mM Pipes pH 7.0, 0.1% BSA, 150 mM NaCl, 0.1% Tween-20, with or without 1 mM CaCl2 and 1 uM calmodulin, 1 hour at 4°C; Western blot with anti-α-CaMKII and anti-GST"}, "GST-CaMKIINα [2]": {"biological_target": "GST-CaMKIINα (UniProt Q9JI15)", "assay": "pull-down; GST pull-down of CaMKII with GST-CaMKIINα in competition with His-GluN2B: both added simultaneously, or His-GluN2B added (one hour) after 20 min of CaMKII with GST-CaMKIINα; densitometry of three experiments"}}, "note": "No constants are given. Whether binding was seen depends on the method and setting. In cells and extracts the contact can be indirect. Some entries that bind do so weakly or less than the wild type.", "data": [{"substance": "WT-α-CaMKII (from UniProt P11275 1-478) (enzyme)", "values": [{"measurement": "binding", "setting": "GST-CaMKIINα [1]", "result": "binds"}, {"measurement": "binding", "setting": "GST-CaMKIINα [2]", "result": "binds"}]}]}
